For at least one compound, name, drawing or mass did not settle the structure.
System: Plasmodium falciparum
Assay: Growth inhibitory effect of GA on synchronous parasites (Giemsa-stained smears)
Type: cell-based
Details: schizont-staged parasites treated with GA
Text: In order to check if GA could inhibit Plasmodium falciparum growth in vitro, we prepared highly synchronous ring-infected parasites using 5% sorbitol. These ring-staged parasites were suspended in RPMI to make 5% hematocrit. […] This correlates with elevated expression of Pfhsp90 in the trophozoite stage compared to ring stage.

COC1=C2C[C@@H](C)C[C@H](OC)[C@H](O)[C@@H](C)/C=C(\C)[C@H](OC(N)=O)[C@@H](OC)/C=C\C=C(/C)C(=O)NC(=CC1=O)C2=O [GA, Geldanamycin]
effect on release of merozoites and reinvasion of erythrocytes: did not affect the release of merozoites and their subsequent reinvasion of erythrocytes
